Test results taken from patent US20260234553A1, “COMPOSITIONS COMPRISING SUPRAMOLECULAR ASSEMBLIES OF PEPTIDE AMPHIPHILES AND ORGANIC CATIONS AND METHODS OF USE THEREOF” (Northwestern University, priority 2023, published 2026).

Columns and labels:
[1] = 23Na NMR relaxometry, Na+/K+ competitive binding assay
PA filaments = assay: OC remaining in supernatant after ultracentrifugation of OCPA samples (quantitative 1H NMR); format: binding; settings: [PA]0 10.00 mM
PA nanostructures = assay: 1H DOSY NMR of OC free and with PA; format: binding; settings: HRMAS DOSY, pelleted OC-PA
Description: Binding of organic cations (OCs) to PA. Initial screening of interactions of five different OCs with PA was performed using ^1H NMR spectroscopy in solution (FIG. 53). Here, ^1H signals lineshape from the ^1H NMR spectra of OCs were compared and analyzed against the corresponding ^1H signals from OC-PA samples. It is expected that ^1H signals will experience broadening if binding is occurring. In all cases we observed significant broadening except for tetramethylammonium (OC4), indicating its poor binding to PA nanostructures. ^1H DOSY NMR measurements. Spectra were measured by monitoring the change in intensity of the corresponding resonances as a function of the field gradient strength g (G/cm). A 2D sequence was used for diffusion measurement based on stimulated echo and LED which applies bipolar gradient pulses for diffusion (2 spoil gradients) together with water presaturation during relaxation delay (ledbpgppr2s Bruker sequence). ^1H DOSY data were first processed in Topspin (Fourier transformation, phasing, and baseline correction) and then the peak intensities of the corresponding resonances were extracted and fitted to the Stejskal-Tanner equation (Eq. 1) to give the value of diffusion coefficient D (m^2/s). Solution ^1H DOSY NMR data were fit to Eq. 1 using NMRTools.jl{, #28110}. ^1H HRMAS DOSY NMR data were fit using the Eq. 1 using Dynamics Center 2.6.3 software. […]

[2] = 0 molar equiv. of K^+, 1 mM PA, 14.5 mM Na^+

C16-VVAAEE [PA, peptide amphiphile monomer, C16=palmitoyl, assembles into one-dimensional nanostructures]
23Na R1 [1, 2]: 49.2 ± 0.4 s⁻¹ | 23Na R2 [1, 2]: 57.8 ± 1.2 s⁻¹ | 23Na R1 ([1]; 1 molar equiv. of K^+): 39.9 ± 0.2 s⁻¹ | 23Na R2 ([1]; 1 molar equiv. of K^+): 46.6 ± 1.1 s⁻¹ | 23Na R1 ([1]; 3 molar equiv. of K^+): 32.2 ± 0.2 s⁻¹ | 23Na R2 ([1]; 3 molar equiv. of K^+): 37.5 ± 1.1 s⁻¹ | 23Na R1 ([1]; 6 molar equiv. of K^+): 27.3 ± 0.1 s⁻¹ | 23Na R2 ([1]; 6 molar equiv. of K^+): 31.9 ± 1.1 s⁻¹

CCn1cc[n+](C)c1.[Cl-] [OC, 1-ethyl-3-methyl imidazolium chloride]
[OC]sn, concentration of OC in the supernatant (PA filaments; [OC]0 20.00 mM): 4.66 mM | [OC]sn, concentration of OC in the supernatant (PA filaments; [OC]0 40.00 mM): 14.96 mM | [OC]sn, concentration of OC in the supernatant (PA filaments; [OC]0 80.00 mM): 31.64 mM | [OC]sn, concentration of OC in the supernatant (PA filaments; [OC]0 160.00 mM): 58.45 mM | population, fast diffusing (PA nanostructures): 81.76±0.05% | population, slow diffusing (PA nanostructures): 18.24±0.03%
